Measurements reported in PubChem BioAssay AID1508597 (Cure First, 2020).
Shown is a random part of the about 2,100 reagents, in one setting of the screen. 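Calls flag viability under 80% in either arm, not effects specific to rucaparib; the reference for percent is not stated.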 A number with no mark means an inactive call. Not given: the 100% reference.

Purpose: 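Knock-downs altering ovarian cancer cell survival with or without PARP inhibitor rucaparib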 (primary screen)
Cells: human ovarian carcinoma lines grown from tumours: OCI-P5x (papillary serous) and OCI-C5x (clear cell)
Knock-down reagent: siRNA pool against human genes, 1.25 pmol siRNA per well
Time to read-out: 72 h or 96 h, depending on the cell culture
Challenge: rucaparib 20 µM (about IC30) or vehicle, present until read-out
Rucaparib or vehicle: Rucaparib
Cell line: OCI-C5x (clear cell)
Measured: 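Luminescent ATP-based viability assay read 72 or 96 h after transfection, depending on culture, given as normalised percent viability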
Reading the numbers: viability, normalised: higher = more viable cells remaining
Active means: 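a well counts as a hit if its normalised viability is under 80 percent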
Meaning of the calls: active = viability under 80%; inactive = viability 80% or more

The opening 5 records, ahead of the listing:
{"Target gene":"MTRF1L","technical replicate":"1","viability, normalised (%)":"62.9 (active)"}
{"Target gene":"MTRF1L","technical replicate":"2","viability, normalised (%)":"54.8 (active)"}
{"Target gene":"MTRF1L","technical replicate":"3","viability, normalised (%)":"67.3 (active)"}
{"Target gene":"TBXT","technical replicate":"1","viability, normalised (%)":"57.1 (active)"}
{"Target gene":"TBXT","technical replicate":"2","viability, normalised (%)":"59.2 (active)"}

Results, from the first entry:
{"Target gene":"MTRF1L","technical replicate":"1","viability, normalised (%)":"62.9 (active)"}
{"Target gene":"MTRF1L","technical replicate":"2","viability, normalised (%)":"54.8 (active)"}
{"Target gene":"MTRF1L","technical replicate":"3","viability, normalised (%)":"67.3 (active)"}
{"Target gene":"TBXT","technical replicate":"1","viability, normalised (%)":"57.1 (active)"}
{"Target gene":"TBXT","technical replicate":"2","viability, normalised (%)":"59.2 (active)"}
{"Target gene":"TBXT","technical replicate":"3","viability, normalised (%)":"39.7 (active)"}
{"Target gene":"BMI1","technical replicate":"1","viability, normalised (%)":"43.8 (active)"}
{"Target gene":"BMI1","technical replicate":"2","viability, normalised (%)":"53.8 (active)"}
{"Target gene":"BMI1","technical replicate":"3","viability, normalised (%)":"54.1 (active)"}
{"Target gene":"ALG8","technical replicate":"1","viability, normalised (%)":"46 (active)"}
{"Target gene":"ALG8","technical replicate":"2","viability, normalised (%)":"53.6 (active)"}
{"Target gene":"ALG8","technical replicate":"3","viability, normalised (%)":"52 (active)"}
{"Target gene":"BCR","technical replicate":"1","viability, normalised (%)":"47.5 (active)"}
{"Target gene":"BCR","technical replicate":"2","viability, normalised (%)":"61.9 (active)"}
{"Target gene":"BCR","technical replicate":"3","viability, normalised (%)":"66.3 (active)"}
{"Target gene":"PXK","technical replicate":"1","viability, normalised (%)":"74.9 (active)"}
{"Target gene":"PXK","technical replicate":"2","viability, normalised (%)":"62.2 (active)"}
{"Target gene":"PXK","technical replicate":"3","viability, normalised (%)":"75.4 (active)"}
{"Target gene":"SUCLA2","technical replicate":"1","viability, normalised (%)":"47.1 (active)"}
{"Target gene":"SUCLA2","technical replicate":"2","viability, normalised (%)":88.7}
{"Target gene":"SUCLA2","technical replicate":"3","viability, normalised (%)":"53.3 (active)"}
{"Target gene":"KAT7","technical replicate":"1","viability, normalised (%)":"32.5 (active)"}
{"Target gene":"KAT7","technical replicate":"2","viability, normalised (%)":"36.7 (active)"}
{"Target gene":"KAT7","technical replicate":"3","viability, normalised (%)":"36.7 (active)"}
{"Target gene":"PRKAA1","technical replicate":"1","viability, normalised (%)":"64.1 (active)"}
{"Target gene":"PRKAA1","technical replicate":"2","viability, normalised (%)":"54.8 (active)"}
{"Target gene":"PRKAA1","technical replicate":"3","viability, normalised (%)":"43.8 (active)"}
{"Target gene":"EPHA2","technical replicate":"1","viability, normalised (%)":"43.3 (active)"}
{"Target gene":"EPHA2","technical replicate":"2","viability, normalised (%)":"50.1 (active)"}
{"Target gene":"EPHA2","technical replicate":"3","viability, normalised (%)":"43.4 (active)"}
{"Target gene":"POLR1C","technical replicate":"1","viability, normalised (%)":"76.6 (active)"}
{"Target gene":"POLR1C","technical replicate":"2","viability, normalised (%)":"63.6 (active)"}
{"Target gene":"POLR1C","technical replicate":"3","viability, normalised (%)":"66.8 (active)"}
{"Target gene":"EXO1","technical replicate":"1","viability, normalised (%)":"52.4 (active)"}
{"Target gene":"EXO1","technical replicate":"2","viability, normalised (%)":"40.8 (active)"}
{"Target gene":"EXO1","technical replicate":"3","viability, normalised (%)":"50.9 (active)"}
{"Target gene":"TNF","technical replicate":"1","viability, normalised (%)":"26.4 (active)"}
{"Target gene":"TNF","technical replicate":"2","viability, normalised (%)":"34.5 (active)"}
{"Target gene":"TNF","technical replicate":"3","viability, normalised (%)":"28.9 (active)"}
{"Target gene":"GTF2H5","technical replicate":"1","viability, normalised (%)":"68.8 (active)"}
{"Target gene":"GTF2H5","technical replicate":"2","viability, normalised (%)":"58.1 (active)"}
{"Target gene":"GTF2H5","technical replicate":"3","viability, normalised (%)":"56 (active)"}
